No constants are given. Whether binding was seen depends on the method and setting.
Molecular target: T1, P2-beta peptide (biotinylated)
T1 sequence (peptide, biotin (position not stated)): GSLEEIIAEGQKC
Test: SEC; 2 uM biotinylated peptide incubated 30 min at RT with 4 uM purified Ssb1 in Ssb buffer (30 mM HEPES KOH pH 7.4, 50 mM KAc, 5 mM MgCl2, 1 mM beta-mercaptoethanol), then apyrase for 1 h; Superose 12; fractions dot-blotted, peptide detected with StrepTactin-HRP and Ssb with antibody; both …

Chains of the proteins cited; added tags and fusions are not shown.
UniProt P11484: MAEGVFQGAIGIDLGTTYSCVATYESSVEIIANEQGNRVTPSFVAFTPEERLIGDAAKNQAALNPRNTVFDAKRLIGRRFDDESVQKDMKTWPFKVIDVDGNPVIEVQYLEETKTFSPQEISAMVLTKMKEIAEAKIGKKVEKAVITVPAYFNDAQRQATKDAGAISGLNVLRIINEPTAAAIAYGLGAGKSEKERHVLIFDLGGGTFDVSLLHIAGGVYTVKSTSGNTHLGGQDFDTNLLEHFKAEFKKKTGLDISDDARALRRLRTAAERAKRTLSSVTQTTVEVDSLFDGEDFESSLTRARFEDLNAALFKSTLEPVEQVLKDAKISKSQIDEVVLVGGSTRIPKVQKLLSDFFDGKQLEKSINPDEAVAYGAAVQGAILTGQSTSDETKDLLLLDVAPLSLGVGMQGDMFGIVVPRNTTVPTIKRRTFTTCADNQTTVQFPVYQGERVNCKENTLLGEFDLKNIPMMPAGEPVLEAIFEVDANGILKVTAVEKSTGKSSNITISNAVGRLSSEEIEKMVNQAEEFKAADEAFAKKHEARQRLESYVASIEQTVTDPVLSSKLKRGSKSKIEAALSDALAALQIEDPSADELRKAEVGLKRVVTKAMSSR

Ssb1 (wild type, recombinant) (from UniProt P11484 1-613)
binding: no binding (tested: 2 uM peptide, 4 uM Ssb1)
